According to the supplement of paper PMC8728848:
Some of the results follow.

Columns and labels:
Test in all cases: glycan array binding signal (z-score within array); higher = stronger binding
Conditions in all cases: glycan notation: IUPAC condensed, linker removed
[1] = molecular target: GlcNAc(b1-3)Gal(b1-4)GlcNAc(b1-3)Gal(b1-4)GlcNAc
Method in brief: (§1)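 Columns mapping to the same glycan were averaged after glycan names were converted to IUPAC-condensed notation. The data come from 3228 arrays in the Consortium for Functional Glycomics database, limited to those with an available protein sequence. Binding is reported as a within-array Z-score averaged across arrays of one protein sequence and across linkers.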

[2] = molecular target: GlcNAc(b1-3)GalNAc
Method in brief: as §1

[3] = molecular target: GlcNAc(b1-3)Man
Method in brief: as §1

[4] = molecular target: GlcNAc(b1-3)[GlcNAc(b1-4)][GlcNAc(b1-6)]GlcNAc
Method in brief: as §1

[5] = molecular target: GlcNAc(b1-3)[GlcNAc(b1-6)]Gal(b1-4)GlcNAc
Method in brief: as §1

[6] = molecular target: GlcNAc(b1-3)[GlcNAc(b1-6)]GalNAc
Method in brief: as §1

[7] = molecular target: GlcNAc(b1-4)Gal(b1-4)GlcNAc
Method in brief: as §1

[8] = molecular target: GlcNAc(b1-4)GlcNAc
Method in brief: as §1

[9] = molecular target: GlcNAc(b1-4)GlcNAc(b1-4)GlcNAc
Method in brief: as §1

[10] = molecular target: GlcNAc(b1-4)GlcNAc(b1-4)GlcNAc(b1-4)GlcNAc(b1-4)GlcNAc
Method in brief: as §1

[11] = molecular target: GlcNAc(b1-4)GlcNAc(b1-4)GlcNAc(b1-4)GlcNAc(b1-4)GlcNAc(b1-4)GlcNAc
Method in brief: as §1

[12] = molecular target: GlcNAc(b1-4)[GlcNAc(b1-6)]GalNAc
Method in brief: as §1

[13] = molecular target: GlcNAc(b1-6)Gal(b1-4)GlcNAc
Method in brief: as §1

[14] = molecular target: GlcNAc(b1-6)GalNAc
Method in brief: as §1

[15] = molecular target: GlcNAc3Prop(b1-4)GlcNAc
Method in brief: as §1

[16] = molecular target: GlcNAc6S(b1-3)Gal(b1-4)GlcNAc
Method in brief: as §1

[17] = molecular target: Kdn(a2-3)Gal(b1-3)GalNAc
Method in brief: as §1

[18] = molecular target: Kdn(a2-3)Gal(b1-3)GlcNAc
Method in brief: as §1

[19] = molecular target: Kdn(a2-3)Gal(b1-4)Glc
Method in brief: as §1

[20] = molecular target: Kdn(a2-3)Gal(b1-4)GlcNAc
Method in brief: as §1

[21] = molecular target: Kdn(a2-3)Gal(b1-4)[Fuc(a1-3)]GlcNAc
Method in brief: as §1

[22] = molecular target: Kdn(a2-6)Gal(b1-4)GlcNAc
Method in brief: as §1

[23] = molecular target: Man(a1-2)Man(a1-2)Man(a1-3)Man
Method in brief: as §1

[24] = molecular target: Man(a1-2)Man(a1-2)Man(a1-6)[Man(a1-3)]Man
Method in brief: as §1

[25] = molecular target: Man(a1-2)Man(a1-3)Man
Method in brief: as §1

[26] = molecular target: Man(a1-2)Man(a1-3)[Man(a1-2)Man(a1-6)]Man
Method in brief: as §1

[27] = molecular target: Man(a1-2)Man(a1-3)[Man(a1-2)Man(a1-6)]Man(a1-6)[Man(a1-2)Man(a1-2)Man(a1-3)]Man
Method in brief: as §1

[28] = molecular target: Man(a1-2)Man(a1-3)[Man(a1-2)Man(a1-6)]Man(a1-6)[Man(a1-2)Man(a1-2)Man(a1-3)]Man(b1-4)GlcNAc(b1-4)GlcNAc
Method in brief: as §1

[29] = molecular target: Man(a1-2)Man(a1-3)[Man(a1-6)]Man(a1-6)[Man(a1-2)Man(a1-3)]Man(b1-4)GlcNAc(b1-4)GlcNAc
Method in brief: as §1

[30] = molecular target: Man(a1-2)Man(a1-6)[Man(a1-3)]Man(a1-6)[Man(a1-2)Man(a1-2)Man(a1-3)]Man
Method in brief: as §1

[31] = molecular target: Man(a1-2)Man(a1-6)[Man(a1-3)]Man(a1-6)[Man(a1-2)Man(a1-2)Man(a1-3)]Man(b1-4)GlcNAc(b1-4)GlcNAc
Method in brief: as §1

[32] = molecular target: Man(a1-3)[Man(a1-6)]Man
Method in brief: as §1

[33] = molecular target: Man(a1-3)[Man(a1-6)]Man(a1-6)[Man(a1-2)Man(a1-3)]Man(b1-4)GlcNAc(b1-4)GlcNAc
Method in brief: as §1

[34] = molecular target: Man(a1-3)[Man(a1-6)]Man(a1-6)[Man(a1-3)]Man
Method in brief: as §1

[35] = molecular target: Man(a1-3)[Man(a1-6)]Man(a1-6)[Man(a1-3)]Man(b1-4)GlcNAc(b1-4)GlcNAc
Method in brief: as §1

[36] = molecular target: Man(a1-3)[Man(a1-6)]Man(b1-4)GlcNAc(b1-4)GlcNAc
Method in brief: as §1

[37] = molecular target: Man(a1-6)Man
Method in brief: as §1

[38] = molecular target: Man(b1-4)GlcNAc
Method in brief: as §1

[39] = molecular target: Neu5Ac(a2-3)Gal
Method in brief: as §1

[40] = molecular target: Neu5Ac(a2-3)Gal(b1-3)GalNAc
Method in brief: as §1

[41] = molecular target: Neu5Ac(a2-3)Gal(b1-3)GalNAc(b1-3)Gal(a1-4)Gal(b1-4)Glc
Method in brief: as §1

[42] = molecular target: Neu5Ac(a2-3)Gal(b1-3)GalNAc(b1-4)[Neu5Ac(a2-3)]Gal(b1-4)Glc
Method in brief: as §1

[43] = molecular target: Neu5Ac(a2-3)Gal(b1-3)GalNAc6S
Method in brief: as §1

[44] = molecular target: Neu5Ac(a2-3)Gal(b1-3)GlcNAc
Method in brief: as §1

[45] = molecular target: Neu5Ac(a2-3)Gal(b1-3)GlcNAc(b1-2)Man(a1-3)[Neu5Ac(a2-3)Gal(b1-3)GlcNAc(b1-2)Man(a1-6)]Man(b1-4)GlcNAc(b1-4)GlcNAc
Method in brief: as §1

B1: SRS6 (Toxoplasma gondii), Q9NH12 (protein)
chain: MARTGSMQQRRGGFQTTARMLMAVCVSGVLLLSSGPSSANKLTEGQQNQNSGPGAATQEGPTIEGAVAKCVLKTTAAENGSSRAKNTTGLTLSKENLVVSLQCSGEKNAIVPKDQKKVCSAAPNAKVADCKGADTDKQVTLKSLLGTSGDIQWEKTIVSTDNKGEVMTLKIKESELPLFDKAFFVGCEEDKAQTRTSQATECKVNVSVKARPSTVGENNVVTCAYGKDSNPRPLEVEMSADNDTLTIDCGTDGSLKPTKYTEEFCVTDNSQLESCTTKKFSEILPTFLPSWWVSDSQNGSAKLTIPESGFPEEQQQFRLGCVPKKTTQSPQANPSVKTEKEEGAQNTDASTSNCSVIVTVKASNFSSLASSIAPTAAVAGGAAALTGFLVGSF
Question: Which results are given for B1?
Answer: glycan array binding signal (z-score) [1]: -1.2; glycan array binding signal (z-score) [2]: -0.849; glycan array binding signal (z-score) [3]: 0.884; glycan array binding signal (z-score) [4]: -0.791; glycan array binding signal (z-score) [5]: 0.35; glycan array binding signal (z-score) [6]: -0.548; glycan array binding signal (z-score) [7]: -0.257; glycan array binding signal (z-score) [8]: -0.382; glycan array binding signal (z-score) [9]: 0.113; glycan array binding signal (z-score) [10]: -0.431; glycan array binding signal (z-score) [11]: -0.638; glycan array binding signal (z-score) [12]: -1.01; glycan array binding signal (z-score) [13]: 0.148; glycan array binding signal (z-score) [14]: -0.861; glycan array binding signal (z-score) [15]: 0.55; glycan array binding signal (z-score) [16]: -0.536; glycan array binding signal (z-score) [17]: 1.54; glycan array binding signal (z-score) [18]: -0.434; glycan array binding signal (z-score) [19]: 0.224; glycan array binding signal (z-score) [20]: 0.128; glycan array binding signal (z-score) [21]: 0.148; glycan array binding signal (z-score) [22]: -0.779; glycan array binding signal (z-score) [23]: 0.984; glycan array binding signal (z-score) [24]: -0.918; glycan array binding signal (z-score) [25]: -0.108; glycan array binding signal (z-score) [26]: -0.314; glycan array binding signal (z-score) [27]: 0.268; glycan array binding signal (z-score) [28]: -0.138; glycan array binding signal (z-score) [29]: 0.14; glycan array binding signal (z-score) [30]: -0.006; glycan array binding signal (z-score) [31]: 0.131; glycan array binding signal (z-score) [32]: -0.157; glycan array binding signal (z-score) [33]: 1.44; glycan array binding signal (z-score) [34]: -0.083; glycan array binding signal (z-score) [35]: 0.066; glycan array binding signal (z-score) [36]: -0.88; glycan array binding signal (z-score) [37]: -0.965; glycan array binding signal (z-score) [38]: -0.28; glycan array binding signal (z-score) [39]: 0.442; glycan array binding signal (z-score) [40]: -0.04; glycan array binding signal (z-score) [41]: 0.94; glycan array binding signal (z-score) [42]: 0.148; glycan array binding signal (z-score) [43]: 0.685; glycan array binding signal (z-score) [44]: -0.625; glycan array binding signal (z-score) [45]: -0.868
